Binding data for one substance are collected here from paper PMC4907486.

By UniProt entry, the sequences of proteins in these tests, tags left out.
UniProt Q16512: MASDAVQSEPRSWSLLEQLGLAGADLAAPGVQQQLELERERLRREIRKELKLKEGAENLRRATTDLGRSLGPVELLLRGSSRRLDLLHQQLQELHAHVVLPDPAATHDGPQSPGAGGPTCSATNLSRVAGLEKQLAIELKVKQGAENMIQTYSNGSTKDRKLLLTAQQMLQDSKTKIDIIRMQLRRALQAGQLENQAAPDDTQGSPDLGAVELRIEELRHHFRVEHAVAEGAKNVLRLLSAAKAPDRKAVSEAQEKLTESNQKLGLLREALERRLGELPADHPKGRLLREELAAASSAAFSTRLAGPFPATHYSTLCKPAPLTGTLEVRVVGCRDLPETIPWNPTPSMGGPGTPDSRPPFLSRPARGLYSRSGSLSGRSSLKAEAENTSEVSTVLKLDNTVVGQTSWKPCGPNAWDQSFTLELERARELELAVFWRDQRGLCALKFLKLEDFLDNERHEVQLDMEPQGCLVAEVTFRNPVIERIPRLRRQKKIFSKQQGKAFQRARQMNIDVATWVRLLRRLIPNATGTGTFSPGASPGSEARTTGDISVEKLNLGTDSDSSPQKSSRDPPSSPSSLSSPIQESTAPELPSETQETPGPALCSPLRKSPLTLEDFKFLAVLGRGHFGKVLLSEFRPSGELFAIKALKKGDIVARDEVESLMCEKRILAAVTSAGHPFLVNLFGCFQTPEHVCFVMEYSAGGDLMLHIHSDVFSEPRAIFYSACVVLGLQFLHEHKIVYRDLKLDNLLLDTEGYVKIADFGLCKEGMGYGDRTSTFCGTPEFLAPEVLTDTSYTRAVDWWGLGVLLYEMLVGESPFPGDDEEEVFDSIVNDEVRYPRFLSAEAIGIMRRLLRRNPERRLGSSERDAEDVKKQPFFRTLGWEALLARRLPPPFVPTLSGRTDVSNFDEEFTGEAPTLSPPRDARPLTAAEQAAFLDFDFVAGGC
UniProt O00571: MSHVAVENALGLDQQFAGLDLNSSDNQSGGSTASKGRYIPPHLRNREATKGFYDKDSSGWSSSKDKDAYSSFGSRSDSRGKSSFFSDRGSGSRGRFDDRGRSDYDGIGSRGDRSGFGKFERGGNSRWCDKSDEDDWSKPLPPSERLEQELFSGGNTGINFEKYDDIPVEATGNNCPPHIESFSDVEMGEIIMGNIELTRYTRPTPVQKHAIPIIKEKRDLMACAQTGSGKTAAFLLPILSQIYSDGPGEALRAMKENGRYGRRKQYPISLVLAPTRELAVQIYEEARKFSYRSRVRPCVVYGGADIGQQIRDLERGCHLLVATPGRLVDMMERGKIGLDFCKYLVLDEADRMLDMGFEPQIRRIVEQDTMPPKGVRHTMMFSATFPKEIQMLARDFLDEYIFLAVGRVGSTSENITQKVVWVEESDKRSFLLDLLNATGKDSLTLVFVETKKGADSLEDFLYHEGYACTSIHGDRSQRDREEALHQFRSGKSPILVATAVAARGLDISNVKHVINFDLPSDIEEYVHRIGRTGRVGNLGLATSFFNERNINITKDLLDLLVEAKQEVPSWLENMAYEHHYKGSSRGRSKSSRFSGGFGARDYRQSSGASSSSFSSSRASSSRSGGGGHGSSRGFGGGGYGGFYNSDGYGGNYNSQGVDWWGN

No constants are given. Whether binding was seen depends on the method and setting. Binding seen in cells or lysates may run through a third protein.

For the assay, the target named is PKN-FLAG (FLAG-tagged PKN1) expressed in HEK293T cells (UniProt Q16512). Description: co-IP.

Take “DDX3, endogenous in HEK293T cells (from UniProt O00571 1-662)”: the binding entry is listed as “no binding”.
